Earlier results as cited in patent US7332522B2, “Liver function protecting or ameliorating agent” (Kyowa Hakko Kogyo Co., Ltd., priority 2001, dated 2008).
Some of these results come from one statement about several compounds together.

What was measured:
[1] = test system: Bacteroides melaninogenicus; conditions: cited from earlier work
Fusobacterium nucleatum = conditions: cited from earlier work

SMILES | minimum growth inhibitory concentration [1] | minimum growth inhibitory concentration (Fusobacterium nucleatum)
O=C1OC(c2ccc(O)cc2)Cc2cccc(O)c21 (stereo not shown) [hydrangenol] | 1.25-2.5 ppm | 1.25-2.5 ppm
COc1ccc([C@H]2Cc3cccc(O)c3C(=O)O2)cc1O [phyllodulcin] | 1.25-2.5 ppm | 1.25-2.5 ppm
